Experimental data from the supplement of paper PMC4604168 (melanoma cell lines).
Some of the results follow. Single values are uncertain, as repeats are few or missing.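 Imaging used 1,536-well plates; nuclei positive for cleaved PARP by antibody were divided by total DNA-stained nuclei to yield the apoptosis fraction. Doses for screening kept most cells viable, and cell lines differ markedly in resting and induced cleaved-PARP levels.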

Columns and labels:
Experiment in all cases: cleaved PARP positive nuclei fraction relative to DMSO control; melanoma cells; higher = more apoptosis
Details in all cases: library dose: low library concentration; 72 h
[1] = tested on: 501Mel
[2] = tested on: A101D
[3] = tested on: A2058
[4] = tested on: A375
[5] = tested on: C32
[6] = tested on: CBRC008 (line from a melanoma biopsy)
[7] = tested on: CBRC014 (line from a melanoma biopsy)
[8] = tested on: CBRC016 (line from a melanoma biopsy)
[9] = tested on: CBRC017 (line from a melanoma biopsy)
[10] = tested on: CBRC034 (line from a melanoma biopsy)
[11] = tested on: COLO792
[12] = tested on: COLO800
[13] = tested on: COLO829
[14] = tested on: G361
[15] = tested on: IPC-298
[16] = tested on: IST-MEL1
[17] = tested on: LB2518-MEL
[18] = tested on: LOXIMVI
[19] = tested on: MEL-HO

| SMILES | cleaved PARP positive nuclei fraction [1] [%] | cleaved PARP positive nuclei fraction [2] [%] | cleaved PARP positive nuclei fraction [3] [%] | cleaved PARP positive nuclei fraction [4] [%] | cleaved PARP positive nuclei fraction [5] [%] | cleaved PARP positive nuclei fraction [6] [%] | cleaved PARP positive nuclei fraction [7] [%] | cleaved PARP positive nuclei fraction [8] [%] | cleaved PARP positive nuclei fraction [9] [%] | cleaved PARP positive nuclei fraction [10] [%] | cleaved PARP positive nuclei fraction [11] [%] | cleaved PARP positive nuclei fraction [12] [%] | cleaved PARP positive nuclei fraction [13] [%] | cleaved PARP positive nuclei fraction [14] [%] | cleaved PARP positive nuclei fraction [15] [%] | cleaved PARP positive nuclei fraction [16] [%] | cleaved PARP positive nuclei fraction [17] [%] | cleaved PARP positive nuclei fraction [18] [%] | cleaved PARP positive nuclei fraction [19] [%] |
| --- | --- | --- | --- | --- | --- | --- | --- | --- | --- | --- | --- | --- | --- | --- | --- | --- | --- | --- | --- |
| N#CC[C@H](C1CCCC1)n1cc(-c2ncnc3[nH]ccc23)cn1 [ruxolitinib] + Cn1c(Nc2ccc(C(F)(F)F)cc2)nc2cc(Oc3ccnc(-c4ncc(C(F)(F)F)[nH]4)c3)ccc21 [CHIR265] (first compound 1 µM, partner dose 0.08 µM) | 101 | 554 | 131 | 291 | 84.6 | 126 | 109 | 167 | 100 | 71.7 | 153 | 60.1 | 70.5 | 165 | 66.6 | 68.8 | 178 | 105 | 96.4 |
| Cc1cn(-c2cc(NC(=O)c3ccc(C)c(Nc4nccc(-c5cccnc5)n4)c3)cc(C(F)(F)F)c2)cn1 [nilotinib] + Nc1ccn([C@@H]2O[C@H](CO)[C@@H](O)C2(F)F)c(=O)n1 [gemcitabine] (first compound 0.2 µM, partner dose 0.0004 µM) | 292 | 93.1 | 54.9 | 180 | 78.4 | 35.4 | 117 | 40.2 | 79.6 | 50.4 | 34.6 | 92.2 | 87.3 | 127 | 45.2 | 69.3 | 104 | 52 | 187 |
| Cc1cc(Nc2cc(N3CCN(C)CC3)nc(Sc3ccc(NC(=O)C4CC4)cc3)n2)n[nH]1 [Tozasertib] + C=CCNC1=C2C[C@@H](C)C[C@H](OC)[C@H](O)[C@@H](C)/C=C(\C)[C@H](OC(N)=O)[C@@H](OC)/C=C\C=C(/C)C(=O)NC(=CC1=O)C2=O [Tanespimycin] (first compound 0.006 µM, partner dose 0.002 µM) | 78.8 | 75 | 73.1 | 143 | 189 | 37.4 | 112 | 88 | 106 | 57.9 | 80.7 | 89.9 | 71.8 | 125 | 89.2 | 252 | 117 | 163 | 48.7 |
| Cc1ccc(Nc2nccc(N(C)c3ccc4c(C)n(C)nc4c3)n2)cc1S(N)(=O)=O [Pazopanib] + Nc1ncn([C@H]2C[C@H](O)[C@@H](CO)O2)c(=O)n1 [decitabine] (first compound 0.4 µM, partner dose 0.1 µM) | 96.6 | 91.9 | 206 | 235 | 92.6 | 112 | 197 | 91.4 | 81.2 | 52 | 64.5 | 117 | 89.8 | 93.3 | 61.3 | 94.6 | 230 | 70.2 | 217 |
| O=C(/C=C/c1cccnc1)NCCCCC1CCN(C(=O)c2ccccc2)CC1 + Cn1cnc2c(F)c(Nc3ccc(Br)cc3Cl)c(C(=O)NOCCO)cc21 [selumetinib] (first compound 0.01 µM, partner dose 0.015 µM) | 356 | 143 | 104 | 71.6 | 177 | 4440 | 105 | 348 | 521 | 722 | 791 | 226 | 362 | 7110 | 186 | 97.4 | 554 | 166 | 123 |
| Cc1ccc(Nc2nccc(N(C)c3ccc4c(C)n(C)nc4c3)n2)cc1S(N)(=O)=O [Pazopanib] + Cn1sc(=O)n(Cc2ccccc2)c1=O [TDZD-8] (first compound 0.4 µM, partner dose 0.4 µM) | 71.8 | 146 | 60.6 | 43.2 | 145 | 42.8 | 97.7 | 120 | 93.1 | 34 | 63.8 | 79.5 | 103 | 70.1 | 251 | 32 | 178 | 72.8 | 92.6 |
| N#CC[C@H](C1CCCC1)n1cc(-c2ncnc3[nH]ccc23)cn1 [ruxolitinib] + O=c1[nH]nc(Sc2ncc([N+](=O)[O-])s2)n1-c1ccc2c(c1)OCCO2 [BI78D3] (first compound 1 µM, partner dose 0.2 µM) | 68.6 | 39.1 | 64.4 | 24.5 | 160 | 156 | 91.5 | 60.3 | 91 | 110 | 89.4 | 48.2 | 74.8 | 93.6 | 79.7 | 131 | 78.8 | 61 | 184 |
| O=C(Nc1cc(C(F)(F)F)cc(C(F)(F)F)c1)c1cc(Cl)ccc1O + Cc1cn(-c2cc(NC(=O)c3ccc(C)c(Nc4nccc(-c5cccnc5)n4)c3)cc(C(F)(F)F)c2)cn1 [nilotinib] (first compound 0.016 µM, partner dose 0.2 µM) | 95.9 | 99.2 | 127 | 108 | 77.3 | 70.3 | 108 | 88.6 | 101 | 67.4 | 236 | 176 | 169 | 141 | 91.7 | 65.8 | 299 | 30.3 | 103 |
| Cc1cc(Nc2cc(N3CCN(C)CC3)nc(Sc3ccc(NC(=O)C4CC4)cc3)n2)n[nH]1 [Tozasertib] + CS(=O)(=O)c1ccc(C(=O)Nc2ccc(Cl)c(-c3ccccn3)c2)c(Cl)c1 [vismodegib] (first compound 0.006 µM, partner dose 1 µM) | 73.8 | 180 | 287 | 21.5 | 88.4 | 86.7 | 98.7 | 178 | 81.2 | 66.9 | 59.7 | 96.1 | 112 | 120 | 215 | 133 | 132 | 117 | 129 |
| Cc1cc(Nc2cc(N3CCN(C)CC3)nc(Sc3ccc(NC(=O)C4CC4)cc3)n2)n[nH]1 [Tozasertib] + CCN(CC)CCNC(=O)c1c(C)[nH]c(/C=C2\C(=O)Nc3ccc(F)cc32)c1C [sunitinib] (first compound 0.006 µM, partner dose 0.4 µM) | 164 | 43.8 | 40.4 | 85.7 | 89.4 | 69 | 80.1 | 118 | 96.2 | 33.3 | 110 | 85.7 | 91.4 | 121 | 57.7 | 181 | 110 | 119 | 75.8 |
| N#CC[C@H](C1CCCC1)n1cc(-c2ncnc3[nH]ccc23)cn1 [ruxolitinib] + C[C@@H](Oc1cc(-c2cnn(C3CCNCC3)c2)cnc1N)c1c(Cl)ccc(F)c1Cl [Crizotinib] (first compound 1 µM, partner dose 0.2 µM) | 64.4 | 72.7 | 97.9 | 87.4 | 65.7 | 229 | 91.2 | 414 | 106 | 69.5 | 106 | 89.1 | 113 | 98.7 | 230 | 115 | 102 | 68.6 | 54.5 |

Only cleaved PARP positive nuclei fraction [4] [%] and cleaved PARP positive nuclei fraction [3] [%] (2 entries from above):
SMILES | cleaved PARP positive nuclei fraction [4] [%] | cleaved PARP positive nuclei fraction [3] [%]
Cc1cn(-c2cc(NC(=O)c3ccc(C)c(Nc4nccc(-c5cccnc5)n4)c3)cc(C(F)(F)F)c2)cn1 [nilotinib] + Nc1ccn([C@@H]2O[C@H](CO)[C@@H](O)C2(F)F)c(=O)n1 [gemcitabine] (first compound 0.2 µM, partner dose 0.0004 µM) | 180 | 54.9
O=C(Nc1cc(C(F)(F)F)cc(C(F)(F)F)c1)c1cc(Cl)ccc1O + Cc1cn(-c2cc(NC(=O)c3ccc(C)c(Nc4nccc(-c5cccnc5)n4)c3)cc(C(F)(F)F)c2)cn1 [nilotinib] (first compound 0.016 µM, partner dose 0.2 µM) | 108 | 127
